Measurements published in article PMC12107181 (2025).
These are yes or no findings as the source states them, for the method shown. Some results given as binding are weak or reduced against the parent protein; the word gives no strength. Tags and fused reporters may be left off the sequences shown.

Tests used:
BD-SPA1 (Arabidopsis) [1] = molecular target: T1, BD-SPA1 (Arabidopsis) (UniProt Q9SYX2); test: two-hybrid; screen of a yeast two-hybrid transcription factor library for interactors of COP1 and/or SPA1
T1 sequence: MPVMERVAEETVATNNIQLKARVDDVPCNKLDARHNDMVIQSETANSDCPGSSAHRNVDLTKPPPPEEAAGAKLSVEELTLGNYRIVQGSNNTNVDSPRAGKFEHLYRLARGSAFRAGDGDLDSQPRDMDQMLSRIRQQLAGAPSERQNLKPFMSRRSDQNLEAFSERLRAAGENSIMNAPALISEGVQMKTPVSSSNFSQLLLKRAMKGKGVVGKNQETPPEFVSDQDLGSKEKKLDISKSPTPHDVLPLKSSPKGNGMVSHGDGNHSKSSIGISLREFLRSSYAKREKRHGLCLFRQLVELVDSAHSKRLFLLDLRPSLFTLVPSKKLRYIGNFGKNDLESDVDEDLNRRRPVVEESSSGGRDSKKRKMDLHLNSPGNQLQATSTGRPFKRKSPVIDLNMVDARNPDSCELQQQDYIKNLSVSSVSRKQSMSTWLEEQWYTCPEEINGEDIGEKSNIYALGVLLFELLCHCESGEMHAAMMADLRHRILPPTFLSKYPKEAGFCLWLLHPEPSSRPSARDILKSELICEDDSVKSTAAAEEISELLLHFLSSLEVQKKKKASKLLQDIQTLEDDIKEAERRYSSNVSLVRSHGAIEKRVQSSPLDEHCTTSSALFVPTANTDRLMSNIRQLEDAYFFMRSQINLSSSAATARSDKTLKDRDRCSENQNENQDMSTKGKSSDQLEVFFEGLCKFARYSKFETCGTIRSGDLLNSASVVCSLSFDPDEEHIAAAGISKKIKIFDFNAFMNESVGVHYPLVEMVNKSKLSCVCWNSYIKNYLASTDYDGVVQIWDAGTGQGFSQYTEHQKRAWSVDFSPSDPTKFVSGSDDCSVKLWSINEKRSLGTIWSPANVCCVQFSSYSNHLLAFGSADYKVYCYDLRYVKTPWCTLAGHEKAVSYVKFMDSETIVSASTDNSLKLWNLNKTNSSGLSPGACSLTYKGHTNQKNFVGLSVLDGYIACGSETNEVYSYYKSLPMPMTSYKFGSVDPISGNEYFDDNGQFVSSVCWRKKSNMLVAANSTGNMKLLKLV

BD-COP1 (Arabidopsis) [2] = molecular target: T2, BD-COP1 (Arabidopsis) (UniProt P43254); test: as above
T2 sequence: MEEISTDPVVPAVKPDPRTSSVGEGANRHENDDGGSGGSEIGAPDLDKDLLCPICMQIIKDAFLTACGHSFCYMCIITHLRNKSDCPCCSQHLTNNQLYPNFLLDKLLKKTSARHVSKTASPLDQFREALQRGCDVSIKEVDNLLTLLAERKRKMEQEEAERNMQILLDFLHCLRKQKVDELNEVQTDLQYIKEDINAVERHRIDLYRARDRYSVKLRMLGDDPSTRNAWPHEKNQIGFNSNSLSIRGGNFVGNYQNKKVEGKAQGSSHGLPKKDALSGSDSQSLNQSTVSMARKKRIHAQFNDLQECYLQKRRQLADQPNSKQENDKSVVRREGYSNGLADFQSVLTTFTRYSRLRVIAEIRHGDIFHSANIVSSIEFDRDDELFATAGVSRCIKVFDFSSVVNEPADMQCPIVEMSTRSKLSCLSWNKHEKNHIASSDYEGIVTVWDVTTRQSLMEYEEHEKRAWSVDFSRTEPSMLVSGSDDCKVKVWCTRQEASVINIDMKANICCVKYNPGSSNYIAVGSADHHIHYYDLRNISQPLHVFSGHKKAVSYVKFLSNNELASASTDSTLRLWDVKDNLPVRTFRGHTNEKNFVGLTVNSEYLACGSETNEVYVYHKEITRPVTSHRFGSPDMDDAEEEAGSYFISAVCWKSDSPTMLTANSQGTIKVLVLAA

BD-COP1 (Arabidopsis) [3] = molecular target: T2, BD-COP1 (Arabidopsis); test: two-hybrid; yeast three-hybrid (Y3H); BD-COP1 as bait and AD-TCP3 as prey in the presence or absence of coexpressed, untagged SPA1 or TCP10 (Bridge); β-galactosidase activity
BD-SPA1 (Arabidopsis) [4] = molecular target: T1, BD-SPA1 (Arabidopsis); test: two-hybrid; directed Y2H; BD fusion as bait, AD fusion as prey; transformed yeast grown on the indicated media at decreasing OD (Fig. 1A; the Y2H panels of SI Appendix, Figs. S4 and S5D, whose read-out was not shown, are put here)
BD-COP1 (Arabidopsis) [5] = molecular target: T2, BD-COP1 (Arabidopsis); test: as above
BD-COP1 (Arabidopsis) [6] = molecular target: T2, BD-COP1 (Arabidopsis); test: two-hybrid; Y2H, quantified read-out with SD of three independent biological replicates (Fig. 2B, E, F); BD-COP1 or its mutants with AD fusions
MBP-COP1 (Arabidopsis) = molecular target: T3, MBP-COP1 (Arabidopsis) (UniProt P43254); test: pull-down; GST-TCP3, GST and MBP-COP1 purified from E. coli; coprecipitated using MBP-beads, eluates analysed with α-GST and α-MBP; both purified
T3 sequence: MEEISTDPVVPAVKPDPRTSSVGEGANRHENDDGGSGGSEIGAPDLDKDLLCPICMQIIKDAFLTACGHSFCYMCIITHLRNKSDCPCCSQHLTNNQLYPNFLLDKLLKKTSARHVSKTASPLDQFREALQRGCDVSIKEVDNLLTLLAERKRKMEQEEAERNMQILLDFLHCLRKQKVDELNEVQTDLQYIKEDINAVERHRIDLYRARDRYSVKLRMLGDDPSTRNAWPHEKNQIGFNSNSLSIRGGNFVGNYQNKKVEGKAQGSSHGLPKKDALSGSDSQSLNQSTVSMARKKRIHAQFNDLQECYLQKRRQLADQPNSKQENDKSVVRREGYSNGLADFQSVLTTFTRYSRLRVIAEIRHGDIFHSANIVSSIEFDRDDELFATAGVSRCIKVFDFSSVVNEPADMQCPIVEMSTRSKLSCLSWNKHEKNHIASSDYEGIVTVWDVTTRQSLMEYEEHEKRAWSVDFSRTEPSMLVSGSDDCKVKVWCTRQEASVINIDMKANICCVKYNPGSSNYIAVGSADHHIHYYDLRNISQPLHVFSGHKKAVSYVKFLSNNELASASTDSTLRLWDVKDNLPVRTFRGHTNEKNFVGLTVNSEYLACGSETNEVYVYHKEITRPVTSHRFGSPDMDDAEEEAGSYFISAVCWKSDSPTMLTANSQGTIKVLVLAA

Measured: binding

B1: AD-TCP3 (protein, UniProt Q9MAH8 1-391)
chain: MAPDNDHFLDSPSPPLLEMRHHQSATENGGGCGEIVEVQGGHIVRSTGRKDRHSKVCTAKGPRDRRVRLSAPTAIQFYDVQDRLGFDRPSKAVDWLITKAKSAIDDLAQLPPWNPADTLRQHAAAAANAKPRKTKTLISPPPPQPEETEHHRIGEEEDNESSFLPASMDSDSIADTIKSFFPVASTQQSYHHQPPSRGNTQNQDLLRLSLQSFQNGPPFPNQTEPALFSGQSNNQLAFDSSTASWEQSHQSPEFGKIQRLVSWNNVGAAESAGSTGGFVFASPSSLHPVYSQSQLLSQRGPLQSINTPMIRAWFDPHHHHHHHQQSMTTDDLHHHHPYHIPPGIHQSAIPGIAFASSGEFSGFRIPARFQGEQEEHGGDNKPSSASSDSRH
not listed: MBP-COP1 (Arabidopsis)
binds: all other assays above

B2: GST-TCP3 (protein, UniProt Q9MAH8 1-391)
chain: MAPDNDHFLDSPSPPLLEMRHHQSATENGGGCGEIVEVQGGHIVRSTGRKDRHSKVCTAKGPRDRRVRLSAPTAIQFYDVQDRLGFDRPSKAVDWLITKAKSAIDDLAQLPPWNPADTLRQHAAAAANAKPRKTKTLISPPPPQPEETEHHRIGEEEDNESSFLPASMDSDSIADTIKSFFPVASTQQSYHHQPPSRGNTQNQDLLRLSLQSFQNGPPFPNQTEPALFSGQSNNQLAFDSSTASWEQSHQSPEFGKIQRLVSWNNVGAAESAGSTGGFVFASPSSLHPVYSQSQLLSQRGPLQSINTPMIRAWFDPHHHHHHHQQSMTTDDLHHHHPYHIPPGIHQSAIPGIAFASSGEFSGFRIPARFQGEQEEHGGDNKPSSASSDSRH
binds: MBP-COP1 (Arabidopsis)

B3: TCP4 (protein, UniProt Q8LPR5 1-420)
chain: MSDDQFHHPPPPSSMRHRSTSDAADGGCGEIVEVQGGHIVRSTGRKDRHSKVCTAKGPRDRRVRLSAHTAIQFYDVQDRLGFDRPSKAVDWLIKKAKTSIDELAELPPWNPADAIRLAAANAKPRRTTAKTQISPSPPPPQQQQQQQQLQFGVGFNGGGAEHPSNNESSFLPPSMDSDSIADTIKSFFPVIGSSTEAPSNHNLMHNYHHQHPPDLLSRTNSQNQDLRLSLQSFPDGPPSLLHHQHHHHTSASASEPTLFYGQSNPLGFDTSSWEQQSSEFGRIQRLVAWNSGGGGGATDTGNGGGFLFAPPTPSTTSFQPVLGQSQQLYSQRGPLQSSYSPMIRAWFDPHHHHQSISTDDLNHHHHLPPPVHQSAIPGIGFASGEFSSGFRIPARFQGQEEEQHDGLTHKPSSASSISRH
binds: BD-SPA1 (Arabidopsis) [4] | BD-COP1 (Arabidopsis) [5]
